The subject of data set [1] is male Long-Evans rats. Nature of the data set: Arterial blood gases and mean arterial blood pressure in the focal cerebral ischemia study. The class given is in vivo, rat. Particulars: for PaCO2 / PaO2 / pH (arterial): 30 min after MCA occlusion; for MABP Ischemia: average during occlusion; for MABP Steady State: just prior to occlusion.
Data set [2] concerns male Long-Evans rats. Nature of the data set: Laser Doppler microvascular blood flow in right parietal cortex during occlusion. The class given is in vivo, rat. Particulars: control 20.8±7.7%.

For `O=C1NCCc2c(OCCCCN3CCCCC3)cccc21` [DPQ, 3,4-dihydro-5-[4-(1-piperidinyl)-butoxy]-1(2H)-isoquinolinone], the PaCO2 in data set [1] (5 mg/kg-treated group) amounted to 38. mm Hg; in data set [1] (10 mg/kg-treated group) it was 39.3 mm Hg; in data set [1] (20 mg/kg-treated group), 41.3 mm Hg; in data set [1] (40 mg/kg-treated group), 39.5 mm Hg. In addition, the PaO2 in data set [1] (5 mg/kg-treated group) is 126 ± 20 mm Hg; in data set [1] (10 mg/kg-treated group) it was 125 ± 16 mm Hg; in data set [1] (20 mg/kg-treated group) it was 122 ± 14 mm Hg; in data set [1] (40 mg/kg-treated group), 137 ± 17 mm Hg. In addition, the “pH (arterial)” value in data set [1] (5 mg/kg-treated group) is listed as 7.36; in data set [1] (10 mg/kg-treated group), 7.34; in data set [1] (20 mg/kg-treated group) it was 7.35; in data set [1] (40 mg/kg-treated group), 7.33. Further, the “MABP Ischemia” value turned out to be 91 ± 12 mm Hg in data set [1] (5 mg/kg-treated group), 90 ± 14 mm Hg in data set [1] (10 mg/kg-treated group), 91 ± 12 mm Hg in data set [1] (20 mg/kg-treated group) and 88 ± 12 mm Hg in data set [1] (40 mg/kg-treated group). The “MABP Steady State” value in data set [1] (5 mg/kg-treated group) is recorded as 78 ± 5 mm Hg; in data set [1] (10 mg/kg-treated group) it was 80 ± 9 mm Hg; in data set [1] (20 mg/kg-treated group), 79 ± 10 mm Hg; in data set [1] (40 mg/kg-treated group), 78 ± 4 mm Hg. For the same compound, the “relative blood flow in the right parietal cortex, of the baseline” value is reported as 18.7±7.4% in data set [2] (5 mg/kg-treated group), 21.4±7.7% in data set [2] (10 mg/kg-treated group) and 19.3±11.2% in data set [2] (40 mg/kg-treated group).

(Values after US6635642B1, “PARP inhibitors, pharmaceutical compositions comprising same, and methods of using same” (Guilford Pharmaceuticals Inc., priority 1997, dated 2003).)
